Values from PubChem BioAssay AID504764 (Drosophila RNAi Screening Center, 2011)
In all, the deposit lists about 22,000 reagents; shown is an unselected part of those that have a named target and a result. In the full data, 403 (1.9%) are marked active. 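Unnormalised raw counts per well; ratio z-scores behind the hit calls and whether each hit raises or lowers signal are not deposited.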 Names joined by + are all predicted targets of the reagent. The record does not give: the amount of reagent.

- Test: 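Genome-wide screen for regulators of Notch-driven gene expression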 (primary screen)
- Cells: Drosophila Kc167 cells
- Reagent: long dsRNA against Drosophila genes
- Time to read-out: about 5 days (4 days dsRNA, then 24 h after transfection)
- Conditions: transfection of constitutively active membrane-tethered Notch lacking the extracellular domain, read 24 h later
- Measurement: 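Firefly luciferase from an E(spl)m3 reporter with active Notch, plus control-promoter and uninduced reporter wells for normalisation; unnormalised counts, duplicate wells a and b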
- Scale: induced reporter light, run 1, well a and induced reporter light, run 1, well b: higher = more light from the Notch target reporter with active Notch; control promoter light, run 1, well a and control promoter light, run 1, well b: higher = more light from the viral control promoter (cell number, transfection, viability); uninduced reporter light, run 1, well a: higher = more light from the Notch target reporter without active Notch
- Rule for the call: 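Wells with low control signal or poorly matching duplicates excluded; duplicates averaged; per source plate, z beyond ±2 for induced/control log2 ratio or beyond ±1.8 for induced/uninduced marks a hit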
- Calls: active = modifier hit (raised or lowered Notch signal); inactive = not a hit

The opening 5 entries as a preview:
gene | DRSC id | induced reporter light, run 1, well a | induced reporter light, run 1, well b | control promoter light, run 1, well a | control promoter light, run 1, well b | uninduced reporter light, run 1, well a | outcome
CG13288 | DRSC09962 | 2.92e5 | 2.00e5 | 2.20e5 | 2.25e5 | 7740 | inactive
CG10332 (retired record) + IM18 | DRSC04064 | 1.61e5 | 1.60e5 | 1.80e5 | 1.74e5 | 12210 | inactive
CG7789 | DRSC16312 | 85670 | 92550 | 1.76e5 | 1.31e5 | 8560 | inactive
CG11635 + spaw | DRSC06075 | 1.85e5 | 1.39e5 | 2.26e5 | 1.95e5 | 15205 | inactive
CG15399 | DRSC00413 | 1.35e5 | 1.15e5 | 1.22e5 | 1.27e5 | 10080 | inactive

Main list, from the first entry:
gene | DRSC id | induced reporter light, run 1, well a | induced reporter light, run 1, well b | control promoter light, run 1, well a | control promoter light, run 1, well b | uninduced reporter light, run 1, well a | outcome
CG13288 | DRSC09962 | 2.92e5 | 2.00e5 | 2.20e5 | 2.25e5 | 7740 | inactive
CG10332 (retired record) + IM18 | DRSC04064 | 1.61e5 | 1.60e5 | 1.80e5 | 1.74e5 | 12210 | inactive
CG7789 | DRSC16312 | 85670 | 92550 | 1.76e5 | 1.31e5 | 8560 | inactive
CG11635 + spaw | DRSC06075 | 1.85e5 | 1.39e5 | 2.26e5 | 1.95e5 | 15205 | inactive
CG15399 | DRSC00413 | 1.35e5 | 1.15e5 | 1.22e5 | 1.27e5 | 10080 | inactive
Shc | DRSC11284 | 1.74e5 | 1.37e5 | 89410 | 72005 | 7755 | active
vers | DRSC10715 | 90900 | 77605 | 54630 | 26785 | 10130 | inactive
CG4611 | DRSC10434 | 2.41e5 | 2.72e5 | 3.07e5 | 2.55e5 | 14340 | inactive
CG18628 | DRSC10328 | 1.43e5 | 1.52e5 | 2.47e5 | 1.85e5 | 11170 | inactive
otk2 | DRSC07303 | 97075 | 96800 | 95060 | 1.16e5 | 8765 | inactive
CG17764 | DRSC18135 | 47895 | 54980 | 69700 | 68135 | 7890 | inactive
nAChRalpha3 | DRSC18800 | 1.29e5 | 1.37e5 | 2.40e5 | 2.21e5 | 11060 | inactive
wisp | DRSC19703 | 93210 | 1.11e5 | 81540 | 86590 | 10200 | inactive
Gpdh3 | DRSC13561 | 67160 | 60795 | 86940 | 68030 | 8640 | inactive
Gpdh3 | DRSC15325 | 1.76e5 | 1.63e5 | 1.67e5 | 1.51e5 | 11995 | inactive
CG31855 | DRSC02968 | 86790 | 96935 | 1.20e5 | 1.34e5 | 8765 | inactive
Ir25a | DRSC00462 | 1.50e5 | 1.39e5 | 1.22e5 | 1.30e5 | 8715 | inactive
Cpr50Cb | DRSC06975 | 1.08e5 | 1.02e5 | 1.30e5 | 1.35e5 | 11430 | inactive
Ccdc39 | DRSC12286 | 1.51e5 | 1.20e5 | 1.09e5 | 1.14e5 | 10788 | inactive
CG7275 | DRSC10796 | 1.11e5 | 1.19e5 | 49625 | 70895 | 9880 | inactive
CG30154 | DRSC05889 | 1.30e5 | 1.22e5 | 1.50e5 | 1.38e5 | 11835 | inactive
Acp95EF | DRSC14102 | 2.08e5 | 2.25e5 | 2.39e5 | 2.65e5 | 18355 | inactive
bin | DRSC10332 | 2.09e5 | 1.55e5 | 2.48e5 | 3.13e5 | 8115 | inactive
Tim17a1 | DRSC14184 | 69705 | 84785 | 72370 | 62045 | 5405 | inactive
Nhe2 | DRSC03172 | 44445 | 41620 | 63670 | 47255 | 2790 | inactive
Nhe2 | DRSC03377 | 32780 | 23400 | 14740 | 20555 | 1050 | inactive
CG16904 | DRSC15161 | 1.59e5 | 1.34e5 | 89705 | 87665 | 10055 | inactive
Tsp39D | DRSC03099 | 52605 | 35210 | 42695 | 56440 | 2115 | inactive
CG31781 (retired record) | DRSC02431 | 2.64e5 | 2.10e5 | 1.41e5 | 1.59e5 | 14985 | inactive
CG31781 (retired record) | DRSC02432 | 1.52e5 | 1.34e5 | 1.78e5 | 2.03e5 | 13345 | inactive
CG34056 | DRSC08374 | 1.22e5 | 1.50e5 | 3.47e5 | 2.55e5 | 6460 | inactive
CG15186 | DRSC12566 | 82400 | 88450 | 70865 | 68345 | 5925 | inactive
CG12662 | DRSC17865 | 1.49e5 | 2.13e5 | 2.64e5 | 3.34e5 | 12505 | inactive
dtn | DRSC17939 | 1.19e5 | 1.25e5 | 2.38e5 | 3.13e5 | 9755 | inactive
CG4645 | DRSC19907 | 1.60e5 | 1.65e5 | 1.70e5 | 2.15e5 | 12055 | inactive
Cdk1 | DRSC03504 | 27335 | 31495 | 14485 | 24405 | 2500 | inactive
CG30020 | DRSC06252 | 1.18e5 | 1.25e5 | 1.35e5 | 1.57e5 | 12875 | inactive
CG30020 | DRSC06730 | 1.81e5 | 1.50e5 | 2.19e5 | 1.98e5 | 15890 | inactive
Optix | DRSC05078 | 95020 | 1.11e5 | 1.31e5 | 1.36e5 | 4635 | inactive
Optix | DRSC07484 | 1.44e5 | 1.52e5 | 1.39e5 | 1.29e5 | 10960 | inactive
Optix | DRSC21963 | – | – | – | – | – | inactive
Acox57D-p | DRSC04560 | 82120 | 63505 | 55550 | 50385 | 4875 | inactive
eIF2A | DRSC11825 | 1.17e5 | 1.17e5 | 67215 | 71135 | 8335 | inactive
TfIIA-L | DRSC16882 | 86490 | 89795 | 99380 | 1.08e5 | 7088 | inactive
sotv + CG10731 | DRSC05930 | 1.13e5 | 88000 | 1.13e5 | 1.05e5 | 8950 | inactive
sotv + CG10731 | DRSC05997 | 1.75e5 | 1.28e5 | 1.17e5 | 1.30e5 | 9455 | inactive
MED21 | DRSC20932 | 1.13e5 | 1.08e5 | 82405 | 86620 | 9285 | inactive
Psn | DRSC11743 | 1.30e5 | 96435 | 90320 | 72980 | 7138 | inactive
Tango2 | DRSC19394 | 2.32e5 | 1.70e5 | 2.63e5 | 2.38e5 | 14000 | inactive
Ttc1 | DRSC15016 | 2.23e5 | 2.43e5 | 2.32e5 | 2.20e5 | 18000 | inactive
sd | DRSC20370 | 66375 | 74520 | 84225 | 81365 | 8630 | inactive
sd | DRSC21712 | – | – | – | – | – | inactive
smg | DRSC11397 | 99505 | 91505 | 56505 | 24582 | 9355 | inactive
JhI-26 | DRSC06851 | 1.48e5 | 1.37e5 | 2.76e5 | 2.47e5 | 12245 | inactive
MTA1-like | DRSC12382 | 46565 | 49300 | 22328 | 22775 | 6170 | inactive
Klp54D | DRSC07450 | 1.20e5 | 86505 | 1.04e5 | 1.30e5 | 13405 | inactive
Lgr1 | DRSC16675 | 1.87e5 | 1.31e5 | 1.78e5 | 1.67e5 | 9700 | inactive
AANATL5 | DRSC05994 | 29980 | 32375 | 39025 | 38605 | 3642 | inactive
Ir68a | DRSC10599 | 86860 | 75845 | 1.13e5 | 61795 | 4435 | inactive
step | DRSC03694 | 49635 | 42240 | 50705 | 55030 | 3420 | inactive
step | DRSC03699 | 77820 | 61665 | 58595 | 75420 | 3985 | inactive
CG11378 | DRSC18627 | 89310 | 1.06e5 | 1.64e5 | 1.37e5 | 8185 | inactive
thoc7 | DRSC08512 | 73855 | 79035 | 1.05e5 | 1.08e5 | 5205 | inactive
por | DRSC20362 | 92345 | 66000 | 79970 | 87820 | 9615 | inactive
